# Values from PubChem BioAssay AID720505 (Drosophila RNAi Screening Center, 2013)
# Purpose: 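Fly regulators or components of the CRAC channel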 (primary screen)
# System: Drosophila S2R+ cells
# Reagent: long dsRNA against Drosophila genes
# Treatment: thapsigargin (2 µM) in calcium-free buffer to empty internal stores, then 2 mM calcium added back
# Measured: 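Stores emptied by 2 µM thapsigargin without calcium, then 2 mM calcium re-added; fluo-4 fluorescence followed by FLIPR in 384-well plates, per-well averaged endpoint, raw; two screen passes, some wells retested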
# Reading the numbers: calcium signal and retest calcium signal: higher = more calcium entry after store depletion
# Call rule: 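Knock-downs counted as hits when calcium entry dropped relative to STIM1 positive and Rho1 negative controls present on each plate; roughly 1500 genes called, with reductions of differing size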
# Meaning of the calls: active = called as lowering calcium entry; inactive = not called
# The deposit covers about 20,000 reagents; this is a random part of those that have a named target and a result. Of all reagents, about 2,100 (10%) are marked active. 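Raw plate signals without normalisation; calls rest on control-based scores that were not deposited; replicate 2 separates called from uncalled poorly.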 A plus sign joins genes that one reagent is predicted to hit. The record does not give: the amount of reagent, the time to read-out.
Target gene,amplicon,"calcium signal, replicate 1","calcium signal, replicate 2","retest calcium signal, replicate 1","retest calcium signal, replicate 2",outcome
Hasp,DRSC02022,116,108,,,inactive
CG15882,DRSC19735,208,98.5,,,inactive
thr,DRSC07706,131,87.6,,,inactive
CG32086,DRSC10586,113,97,,,inactive
alphaKap4,DRSC09823,72.5,70.1,,,inactive
AOX3,DRSC15955,99.2,105,,,inactive
SecS,DRSC12222,121,230,,,inactive
CG14937,DRSC02419,204,169,,,inactive
Sec24AB,DRSC06478,205,195,,,inactive
CG18609,DRSC06775,188,150,,,inactive
CG14346,DRSC00376,162,167,,,inactive
cer,DRSC05992,140,172,,,inactive
Rab35,DRSC20691,110,82.2,,,active
RhoGAP16F,DRSC20025,174,121,,,inactive
CG3216,DRSC04347,224,80.4,,,inactive
FMRFa,DRSC07428,95.2,88.2,,,inactive
spin,DRSC07176,158,82.5,99.7,110,inactive
spin,DRSC22271,102,135,,,inactive
CG34326 (retired record),DRSC19165,76.4,82.7,,,inactive
CG15745 (retired record),DRSC19711,142,94.9,,,inactive
CG32117,DRSC21652,153,101,,,inactive
SPR,DRSC17886,133,92.3,,,inactive
SPR,DRSC18114,166,132,,,inactive
SPR,DRSC21557,179,97.5,,,inactive
Mcm3,DRSC18679,153,70.5,,,inactive
caup,DRSC11334,91.1,90.3,,,inactive
caup,DRSC23050,118,157,,,inactive
Rph,DRSC17790,126,103,,,inactive
Su(z)3 (retired record),DRSC07558,80.4,121,,,inactive
Su(z)3 (retired record),DRSC22970,86.5,82.8,,,inactive
robl,DRSC07674,184,150,,,inactive
Adgf-B,DRSC10568,126,150,,,inactive

A few values from the entries so far.
For “outcome”, caup [DRSC23050] has inactive
Under “calcium signal, replicate 2”, CG15745 (retired record) [DRSC19711] has 94.9
FMRFa [DRSC07428], calcium signal, replicate 2: 88.2
For “calcium signal, replicate 2”, Rph [DRSC17790] is entered as 103
spin [DRSC07176], calcium signal, replicate 1: 158
Mcm3 [DRSC18679], outcome = inactive

Further entries follow.
Target gene,amplicon,"calcium signal, replicate 1","calcium signal, replicate 2","retest calcium signal, replicate 1","retest calcium signal, replicate 2",outcome
TwdlD,DRSC14738,110,119,,,inactive
CG34427,DRSC09978,87.5,68,,,inactive
CG7634,DRSC11843,100,131,,,inactive
CG32333,DRSC08627,115,123,,,inactive
CG32333,DRSC08629,66.2,98.4,,,inactive
Dro,DRSC07406,124,158,,,inactive
CR6900,DRSC20018,76.2,101,,,inactive
Dcr-2,DRSC06992,156,149,,,inactive
CG30457,DRSC06661,192,173,88.8,74.6,inactive
CG17768 + LSm-4,DRSC02845,187,148,,,inactive
p23,DRSC15158,129,127,,,inactive
CG2926,DRSC12321,89,115,,,inactive
alpha-Est2,DRSC12614,134,95.4,,,inactive
Glut3,DRSC16681,164,91.4,,,inactive
osa,DRSC17022,162,213,,,inactive
BoYb,DRSC11637,64.4,141,,,active
mura,DRSC16483,135,90,,,inactive
mura,DRSC16484,71.3,85,,,active
mura,DRSC23145,128,183,,,inactive
FeCH,DRSC16948,117,106,,,inactive
ATP8B,DRSC14961,64,79,,,active
CG8892,DRSC03121,72,185,,,inactive
CG11779,DRSC14384,139,191,,,inactive
CtsL3,DRSC12171,110,115,,,inactive
